# From the supplement of paper PMC8288183
# The other results are listed elsewhere or left out. Most values come without repeats; read them as rough.
# Target: T1, NSUN6 (UniProt Q8TEA1)
# T1 sequence: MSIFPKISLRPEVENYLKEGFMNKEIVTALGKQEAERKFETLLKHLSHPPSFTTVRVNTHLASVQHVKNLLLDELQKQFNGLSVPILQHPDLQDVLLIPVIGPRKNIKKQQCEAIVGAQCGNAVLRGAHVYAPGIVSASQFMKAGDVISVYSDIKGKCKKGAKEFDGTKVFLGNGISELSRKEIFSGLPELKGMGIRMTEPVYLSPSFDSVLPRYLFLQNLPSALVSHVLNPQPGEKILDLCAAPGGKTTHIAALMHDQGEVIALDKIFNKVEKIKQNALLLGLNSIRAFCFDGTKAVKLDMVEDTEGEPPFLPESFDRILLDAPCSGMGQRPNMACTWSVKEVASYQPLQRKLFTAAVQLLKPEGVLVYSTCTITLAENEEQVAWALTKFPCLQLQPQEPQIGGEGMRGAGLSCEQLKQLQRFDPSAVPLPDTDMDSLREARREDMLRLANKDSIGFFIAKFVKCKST
# Experiment: m5C methylation level at the target C (C/(C+U) bisulfite reads) (fraction); higher = more methylation by NSUN6; extreme values may be limits of the assay
# Settings: HEK293T (wild-type)
# Protocol: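 High-throughput mutagenesis reporter. About 140 bp oligo-pool variants of four natural Type II m5C substrates (substrate #1 chr15:91425541; #2 RAB15 3'UTR chr14:65413377; #3 SULT2A1 5'UTR chr19:48389569; #4 NAAA CDS chr4:76857361) were cloned as 3'UTR elements of psiCHECK-2 luciferase and transfected into wild-type HEK293T cells. Total RNA was taken 48 h later and m5C level was measured by targeted bisulfite sequencing as C/(C+U) reads at the m5C site (one library).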
# [1] = parent substrate: substrate #1 (main figure)
Sequence,m5C methylation level at the target C [1],m5C methylation level at the target C (parent substrate: substrate #2),m5C methylation level at the target C (parent substrate: substrate #3),m5C methylation level at the target C (parent substrate: substrate #4)
UCGUGA,0.00124,0,0.00181,0.00058
ACGAAU,0.0014,0.00375,0.00149,0
UCUUAG,0,0,0,0.00128
CCCCAA,0,0.00143,0.000694,0
CCAAGC,0,0,0.00257,0
ACUCAA,0.0102,0,0.00672,0.00578
ACGGGC,0,0.00434,0.000772,0.00125
UCAUAC,0.000681,0,0.0016,0.00355
ACGCUC,0.00543,0.0033,0.00336,0
UCUCUC,0,0,0.000678,0.00133
ACCUUC,0.0024,0.00351,0.00198,0
GCAAGA,0.00223,0,0.00205,0.00839
UCAAGG,0.000578,0,0.000525,0.00136
CCGAGU,0,0.0115,0.00345,0.00325
ACUCUA,0.28,0.0152,0.154,0.0821
ACGUGU,0.00153,0.00669,0.00483,0.00729
ACCCGC,0.00253,0.00287,0.00134,0.00534
CCACAG,0,0,0.000956,0
GCGCCU,0.0015,0.00185,0.00197,0.00352
GCCCCU,0,0.0014,0.000395,0.00232
CCCCUC,0,0.00282,0,0.00121
UCGAAG,0.00178,0.00185,0.00816,0.0021
ACGAGG,0.0114,0.00494,0.00378,0.00247
CCCCUG,0.000652,0.00148,0.00789,0.000592
GCGGGG,0.00379,0.0043,0.00129,0.000418

Sequence,m5C methylation level at the target C [1],m5C methylation level at the target C (parent substrate: substrate #2),m5C methylation level at the target C (parent substrate: substrate #3),m5C methylation level at the target C (parent substrate: substrate #4)
ACCACA,0,0,0,0.00119
ACAUGC,0,0,0.00237,0.000638
ACGGUU,0,0,0.00468,0.00236
GCAUAC,0.000448,0,0.000996,0.00126
CCGGUU,0.000891,0.00131,0,0.00139
UCCAAC,0,0.00357,0.00238,0.000536
ACCGCA,0,0.00167,0.00105,0.00289
ACAUCA,0,0,0,0.00173
GCAACC,0,0,0,0
UCAAUA,0.00175,0,0,0.00474
ACAAGU,0.00214,0.00929,0.0021,0
CCCACC,0.000876,0,0.00297,0.00186
UCUGGG,0.00064,0.00423,0.00134,0
ACCCCA,0.0355,0.00154,0,0.00686
CCGCCC,0,0,0.00099,0
ACUCGU,0.00202,0.00187,0.000984,0.000717
ACUUGG,0.000869,0,0.00152,0.00911
ACAACC,0,0,0,0.00249
GCUUCU,0.0041,0,0.00266,0.000648
CCUCAA,0.016,0,0.0168,0.00699
CCAUCA,0.00259,0,0.000306,0
UCAGUC,0,0,0.000856,0
CCAAAA,0,0.00112,0.0015,0.00174
UCUACG,0.000452,0.00504,0.000377,0.00221
GCCGCG,0.00203,0.00115,0,0.00838

Sequence,m5C methylation level at the target C [1],m5C methylation level at the target C (parent substrate: substrate #2),m5C methylation level at the target C (parent substrate: substrate #3),m5C methylation level at the target C (parent substrate: substrate #4)
GCAAGC,0,0.00329,0,0
UCAAAA,0.00159,0,0,0
UCUUGG,0,0.00121,0,0.00279
GCGAAC,0.00473,0.0102,0.000575,0.00297
GCGACA,0.000646,0.00163,0.00118,0.000748
UCACUA,0,0,0.00059,0.000549
CCGCGC,0.000407,0.00104,0.00474,0.00157
UCGACA,0.00188,0,0.00714,0.00119
UCGGUG,0.0028,0.00206,0.000669,0.00813
UCCGUC,0,0.00364,0.00124,0.00197
UCCAAU,0,0,0.00301,0.000632
GCGGUU,0,0.000751,0,0
GCUUGU,0.000592,0.00243,0.000769,0.00269
CCCAAG,0.00214,0.00082,0.00054,0
UCAAAG,0,0,0,0
UCCUAU,0,0.00114,0.00123,0
CCAGUC,0.000955,0.00685,0.00324,0.00178
CCAUGC,0,0,0.00414,0
CCUUCA,0.00203,0,0.0014,0.000902
GCGUCA,0.00231,0,0.000803,0.00185
ACCCUU,0,0.00269,0.000326,0
ACGGAA,0.000487,0.00113,0.00281,0.00309
GCCAUC,0.00103,0,0.000517,0.000562
ACCUUG,0.000543,0,0.000538,0.00397
GCUCUU,0.00497,0.00918,0.00384,0.0149

Sequence,m5C methylation level at the target C [1],m5C methylation level at the target C (parent substrate: substrate #2),m5C methylation level at the target C (parent substrate: substrate #3),m5C methylation level at the target C (parent substrate: substrate #4)
ACACCC,0,0.00395,0,0.000875
GCUCCA,0.454,0.0277,0.132,0.133
UCCAUA,0,0,0.00103,0.00154
GCGGAA,0.00126,0.0011,0.00605,0.00152
ACGCUG,0.00176,0.00396,0.00334,0
UCGCCU,0.00273,0.00106,0.000402,0
UCACAU,0,0,0.00403,0.00372
GCUUAA,0.000597,0.00503,0,0.00278
UCUCCC,0.00153,0,0,0.000967
UCUCUU,0,0,0,0.000675
UCCGAA,0.00132,0,0,0.000812
CCAGAA,0.00417,0.00983,0,0
ACUAUU,0.00245,0.00234,0,0.000773
CCCUCU,0.00702,0.00207,0.000602,0.00171
UCGUCC,0.00116,0.00163,0.000882,0.00209
ACACAG,0.000787,0,0.00489,0
GCGAUU,0.00273,0.00245,0.000986,0.00248
CCCCCG,0,0.00112,0.00205,0.000551
ACCCUG,0.0016,0.00389,0.00181,0
CCCGGC,0,0,0.00154,0
GCUAGA,0.00217,0.0021,0.000922,0.000889
ACCGAC,0.00476,0,0.000754,0.00104
CCCCUU,0.00335,0,0,0
UCCAGC,0,0,0.00157,0.00109
ACUAAG,0,0.00111,0.000864,0

Sequence,m5C methylation level at the target C [1],m5C methylation level at the target C (parent substrate: substrate #2),m5C methylation level at the target C (parent substrate: substrate #3),m5C methylation level at the target C (parent substrate: substrate #4)
UCGCGG,0.000763,0,0.00139,0.00301
ACUGCG,0.000478,0.00379,0.000995,0
UCCGCU,0,0,0.000624,0.00716
CCCGUG,0.00118,0,0.00118,0
CCUUGG,0,0.000879,0,0.00167
UCAUAU,0,0,0,0
ACGACU,0.00119,0.00131,0.00192,0
ACAGGA,0.00167,0.00127,0.00577,0.000876
CCAAGA,0,0,0.00394,0.000931
CCACUC,0.000587,0.000875,0.000279,0
GCACGC,0.00106,0.00101,0,0.0133
ACAGUG,0.000881,0.00166,0.00669,0
CCCGAG,0,0,0,0.0012
ACAUGA,0.0029,0,0,0.0033
ACCGGA,0,0.00379,0,0
ACUUAG,0.00265,0.00101,0.000471,0.00469
UCCCCC,0.0112,0,0.00157,0.000789
CCUACA,0.00171,0.00177,0.00323,0
CCAGCG,0.000592,0,0.0051,0.000686
CCACGA,0.000395,0,0.00229,0
GCUAAA,0.000724,0.00156,0.00241,0.00175
ACUAGU,0.00109,0,0.00186,0
ACCUGU,0.000705,0.00442,0.00066,0
GCCCGC,0.00217,0.00208,0.00319,0.0012
GCUCAA,0.0179,0.000898,0.00106,0

Sequence,m5C methylation level at the target C [1],m5C methylation level at the target C (parent substrate: substrate #2),m5C methylation level at the target C (parent substrate: substrate #3),m5C methylation level at the target C (parent substrate: substrate #4)
GCCUGG,0.00375,0,0.000643,0.00217
ACUGAA,0.00872,0,0.00613,0.00397
UCGGCU,0,0,0.000674,0.00181
ACGAAC,0.00547,0,0.000621,0
ACCCAC,0,0,0.000651,0
CCCGAA,0.00206,0.00106,0.00228,0.00273
GCGACG,0.000694,0,0.00387,0
ACGAGU,0.00547,0.00322,0,0
CCCAAA,0,0,0.000603,0
UCGACU,0.000922,0.00108,0,0
CCACUA,0.00097,0.00118,0.0014,0.00172
ACGCAU,0.00143,0.00204,0.00221,0.00184
ACAUUA,0.0123,0.00101,0.000678,0.000522
CCGAGA,0.00152,0.00104,0.000545,0.00256
GCAGCU,0.00102,0,0.000801,0.000777
ACCGUG,0.00159,0.000653,0.00152,0.00835
UCGUUC,0.0023,0.00413,0.000345,0
CCCACG,0.00519,0,0.000533,0.00262
ACGCGC,0.00881,0.00299,0.00208,0
ACGGUC,0.00178,0.00105,0.0117,0.00739
